# Results: PubChem BioAssay AID1671190 (National Center for Advancing Translational Sciences (NCATS), 2021)
# By UniProt entry, the sequences of proteins in these tests, tags left out. Where a name states a change or a piece, a line headed by the entry shows the natural chain unless it says otherwise.
# UniProt P18054: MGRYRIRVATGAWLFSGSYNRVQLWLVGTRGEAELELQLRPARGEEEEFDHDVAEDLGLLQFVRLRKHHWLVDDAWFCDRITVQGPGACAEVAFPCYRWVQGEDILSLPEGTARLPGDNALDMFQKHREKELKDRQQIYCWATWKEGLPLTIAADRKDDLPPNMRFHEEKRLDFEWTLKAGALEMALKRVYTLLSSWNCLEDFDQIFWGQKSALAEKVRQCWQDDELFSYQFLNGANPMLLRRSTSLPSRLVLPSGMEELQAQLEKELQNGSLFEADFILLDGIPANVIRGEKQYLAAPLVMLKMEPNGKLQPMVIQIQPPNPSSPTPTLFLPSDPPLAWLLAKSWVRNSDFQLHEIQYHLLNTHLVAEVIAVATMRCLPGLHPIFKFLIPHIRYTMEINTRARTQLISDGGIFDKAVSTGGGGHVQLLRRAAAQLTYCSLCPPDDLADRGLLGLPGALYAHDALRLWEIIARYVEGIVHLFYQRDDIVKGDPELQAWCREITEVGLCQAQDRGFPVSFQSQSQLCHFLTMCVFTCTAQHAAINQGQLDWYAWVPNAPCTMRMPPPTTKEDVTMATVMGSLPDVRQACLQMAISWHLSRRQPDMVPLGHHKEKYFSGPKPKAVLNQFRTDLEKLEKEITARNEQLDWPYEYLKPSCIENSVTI
# Where “and” joins values, the source holds several entries; their conditions need not be identical. Identical values can stand only once. Among all 580,000 compounds or so, about 6,100 (1.1%) were called active. This list was built around the results that the source calls inconclusive (neither active nor inactive); the mix of calls is not that of the screen. Calls come from the whole dose curve; as a rule, active = well fitted inhibition curve with a large enough effect; inconclusive = small, poorly fitted or top-dose-only effect, or another doubt; inactive = no such curve, though single readings can be large or run the other way. Potencies of inconclusive entries are doubtful fits and often do not repeat.
# Molecular target: Polyunsaturated fatty acid lipoxygenase ALOX12 (Homo sapiens) (UniProt P18054)
# Experiment: Primary qHTS assay for inhibitors of human arachidonate 12S-lipoxygenase (ALOX12): Round 2
# Conditions: purified 12hLO, xylenol orange hydroperoxide absorbance; series mostly up to 108 µM
# Summary of the method: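 Purified human 12hLO at 150 nM in 25 mM Hepes, 0.01% Triton X-100, pH 7.0, preincubated 15 min at room temperature with compound. Reaction started with 40 uM arachidonic acid, 30 min at room temperature. Hydroperoxide measured by Fe-xylenol orange, 573/405 nm absorbance ratio.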
# Potency is the fitted concentration of half-maximal effect.
row,Structure (SMILES),Potency
1,O=C(Nc1ccc(F)c(F)c1)c1cc(-c2ccco2)nc2ccccc12,"inconclusive: 12.6 µM [inhibitor, partial curve, poor fit]"
2,CC(C)Sc1oc(-c2ccco2)nc1S(=O)(=O)c1ccc(F)cc1,"active: 28.2 µM and inconclusive: 28.2 µM [inhibitor, partial curve, poor fit]"
3,Cc1cccc(CNc2cc(-c3ccc(C(=O)N(C)C)cc3)ncn2)c1,"inconclusive: 44.7 µM [inhibitor, partial curve, poor fit]"
4,O=C(O)c1cc(-c2ccc3c(c2)OCO3)nc2ccc(Br)cc12,"inconclusive: 56.2 µM [inhibitor, partial curve, poor fit] and inconclusive: 50.1 µM [inhibitor, partial curve, poor fit] and inconclusive: 15.8 µM [inhibitor, full curve]"
5,O=C(N/N=C/c1cn(-c2ccccc2)nc1-c1cc2ccccc2o1)c1ccncc1,inactive
6,CN(CC(=O)Nc1c(Cl)cccc1Cl)C(=O)c1cc(-c2cccs2)nn1-c1ccccc1,inactive
7,Cc1ccc(N2CCN(S(=O)(=O)c3c(C)[nH]c(=O)[nH]c3=O)CC2C)cc1 (configuration not stated),inactive
8,Cc1ccc(OCCNCc2ccccc2)c(C)c1,"inconclusive: 3.55 µM [inhibitor, full curve, poor fit]"
9,Cc1cccc(NNC(=S)Nc2ccccc2)c1,"inconclusive: 70.8 µM [inhibitor, partial curve, poor fit]"
10,CC1CCCCC1N(C)C1CCN(C(=O)CNC(=O)/C=C/c2cccc(Cl)c2)CC1 (configuration not stated),"inconclusive: 50.1 µM [inhibitor, partial curve, poor fit]"
11,O=C(CCN1CCC2CCC(C2)C1)c1ccccc1 (configuration not stated),inactive
12,Cc1ccc(S(=O)(=O)N2CCOCC2)cc1NC(=O)CNCc1ccccc1Cl,"inconclusive: 1.12 µM [inhibitor, full curve, poor fit]"
13,O=C(Cn1cc(COc2ccc(Br)cc2)nn1)c1ccc(O)cc1,"inconclusive: 56.2 µM [inhibitor, partial curve, poor fit]"
14,CC(=O)OCC1=C(C(=O)O)N2C(=O)C(NC(=O)c3ccc(COc4ccc(Cl)cc4)o3)C2SC1 (configuration not stated),active: 39.8 µM
15,COc1c(C)cccc1C(=O)NC(=S)Nc1cccc2nsnc12,inactive
16,Cc1ccccc1-c1nc(CSCC(=O)NCc2ccc3c(c2)OCO3)c(C)o1,inactive
17,Nc1c(-c2ccccc2)c(CN2CCOCC2)nn1-c1cccc([N+](=O)[O-])c1,"inconclusive: 2 µM [inhibitor, full curve, poor fit]"
18,O=c1c2nnn(-c3ccc(F)cc3)c2ncn1Cc1nc(-c2ccccc2)no1,inactive
19,Cc1cc(C)c(OCCCCNCc2ccccc2)c(Cl)c1,"inconclusive: 2.24 µM [inhibitor, full curve, poor fit]"
20,CCCCN1CCC(CNC(=O)c2c3n(c4ccccc24)CCCO3)CC1,"inconclusive: 6.85 µM [inhibitor, full curve, poor fit]"
21,Cc1nnc(NC(=O)c2ccc3c(c2)C(=O)N(CCC(C)C)C3=O)s1,inactive

row,Structure (SMILES),Potency
1,C#CCOCCOCCOCCNc1nc(N2CCN(C(=O)[C@H]([C@@H](C)CC)n3cc(CCCCN)nn3)CC2)nc(N2CCN(C(=O)[C@H](C)n3cc(CCC(=O)O)nn3)CC2)n1,"inconclusive: 0.794 µM [inhibitor, full curve]"
2,Cc1[nH]nc(N)c1-c1ccccc1,inactive
3,COC(=O)c1ccc(CNC(=O)c2ccccc2)cc1,"inconclusive: 112 µM [inhibitor, single point]"
4,Clc1ccc(-c2ccc(CN3CCCCC3)o2)cc1,"inconclusive: 28.2 µM [inhibitor, partial curve, poor fit]"
5,FC(F)(F)c1ccc2c(c1)n(Cc1ccccc1)c1[n+]2CCCCC1,"inconclusive: 56.2 µM [inhibitor, partial curve, poor fit]"
6,CCOc1ccccc1NC(=O)C(=O)c1c[nH]c2ccccc12,inactive
7,O=C(NCC1CC1)C1CN(c2ccccc2)C(=O)N1 (configuration not stated),inactive
8,C[C@]12CC[C@H]3[C@@H](CCC4=CC(=O)CC[C@@]43C)[C@@H]1CC[C@@H]2C(=O)CO,inactive
9,Cc1cnc(C(=O)Oc2cccc(Cl)c2)cn1,"inconclusive: 10 µM [inhibitor, full curve, poor fit]"
10,Cn1ccnc1CNC(=O)C[C@@H]1C[C@H]2O[C@H](CNC3CCC3)[C@@H](O)[C@H]2O1,"inconclusive: 20 µM [inhibitor, full curve, poor fit]"
11,CC1CCN(C(=O)/C(=C\c2ccco2)NC(=O)c2ccccc2)CC1,"inconclusive: 56.2 µM [inhibitor, partial curve, poor fit]"
12,COc1ncc2ncc(=O)n(C3CC3)c2n1,"inconclusive: 3.55 µM [inhibitor, full curve, poor fit]"
13,O=C(O)c1cccc2c1C(=O)c1ccc(-c3ccc(OC(F)(F)F)cc3)cc1S2(=O)=O,"inconclusive: 89.1 µM [inhibitor, partial curve, poor fit]"
14,COc1ccc(C(=O)Nc2cnc(NC(=O)c3cccs3)cc2C)cc1,inactive
15,COc1ccc(OC)c(-c2csc(NC(=O)CSCC(=O)Nc3cc(C)on3)n2)c1,inactive
16,O=C(O)Cn1cc2c(n1)CCCCC2,"inconclusive: 39.8 µM [inhibitor, single point]"
17,COc1ccc(CN(C(=O)c2nn(C)c(=O)c3ccccc23)C2CCS(=O)(=O)C2)cc1 (configuration not stated),inactive
18,COc1ccc(S(=O)(=O)Nc2ccc(O)c(Sc3ncn[nH]3)c2)cc1,"inconclusive: 39.8 µM [inhibitor, partial curve, poor fit]"
19,Cc1cc(C)c(C(=O)C(C)OC(=O)Cc2n[nH]c(=O)c3ccccc23)cc1C (configuration not stated),"inconclusive: 126 µM [inhibitor, single point]"
20,Cc1cc(CS(=O)(=O)Cc2ccccc2Cl)no1,inactive
21,O=C(c1c(O)c2ccccc2oc1=O)C1CCC1,"inconclusive: 17.8 µM [inhibitor, partial curve, poor fit]"
